# Source: publication PMC11784221, “Platelet factor 4-derived C15 peptide broadly inhibits enteroviruses by disrupting viral attachment” (Journal of Virology, 2025)
# Changes are numbered by the printed parent chain. Results are given in words; binding and its absence hold for the method and conditions named. In cells and extracts the contact can be indirect. For some of these results: Binding can be weak; no strength is given. Sequences can lack the tags named with a protein.
# Experiments:
# Assay in all cases: co-IP
# [1] = target: T1, GFP-C15 (C15 of PF4 fused to GFP)
# T1 sequence: QAPLYKKIIKKLLES
# [2] = target: T2, PF4-Myc C15 K to M mutant (UniProt P02776)
# T2 sequence: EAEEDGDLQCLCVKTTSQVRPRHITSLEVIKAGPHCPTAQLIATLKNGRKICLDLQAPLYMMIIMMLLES
# [3] = target: T3, PF4-Myc (wild-type platelet factor 4 with a Myc tag) (UniProt P02776)
# T3 sequence: T2 sequence with M61K, M62K, M65K, M66K
# [4] = target: T4, PF4-ΔC15-Myc (PF4 lacking the C-terminal 15 amino acids) (UniProt P02776)
# T4 sequence: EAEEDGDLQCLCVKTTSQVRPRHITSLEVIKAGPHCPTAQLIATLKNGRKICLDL
# [5] = target: T5, PF4-Myc C15 K to A mutant (UniProt P02776)
# T5 sequence: T2 sequence with M61A, M62A, M65A, M66A
Substance,binding [1],binding [2],binding [3],binding [4],binding [5]
CA6-VP3-HA (VP3 capsid protein of coxsackievirus A6),binds,no binding,binds,no binding,no binding
EVD68-VP3-HA (VP3 capsid protein of enterovirus D68),binds,no binding,binds,no binding,no binding
